The campaign covered roughly 580,000 compounds. About 6,100 (1.1%) were called active. Inconclusive results, whose numbers are uncertain, are shown with a selection of clear calls. The call rests on the fitted dose curve; in most records, active means well fitted inhibition curve with a large enough effect; inconclusive means small, poorly fitted or top-dose-only effect, or another doubt; inactive means no such curve, though single readings can be large or run the other way. Where the call is inconclusive, the potency comes from a doubtful curve fit.
target: Polyunsaturated fatty acid lipoxygenase ALOX12 (Homo sapiens) (UniProt P18054); experiment: Primary qHTS assay for inhibitors of human arachidonate 12S-lipoxygenase (ALOX12): Round 2; settings: purified 12hLO, xylenol orange hydroperoxide absorbance; activity change, negative = inhibition: at 108 µM (top of the series) unless noted
In short: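 Purified human 12hLO at 150 nM in 25 mM Hepes, 0.01% Triton X-100, pH 7.0, preincubated 15 min at room temperature with compound. Reaction started with 40 uM arachidonic acid, 30 min at room temperature. Hydroperoxide measured by Fe-xylenol orange, 573/405 nm absorbance ratio.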
On the % scale 0 is the no-effect control and ±100 the full control effect; potency means the concentration at half of the fitted maximal effect.

The chains behind the UniProt entries cited, without tags or fusion partners. Where a name states a change or a piece, a line headed by the entry shows the natural chain unless it says otherwise.
UniProt P18054: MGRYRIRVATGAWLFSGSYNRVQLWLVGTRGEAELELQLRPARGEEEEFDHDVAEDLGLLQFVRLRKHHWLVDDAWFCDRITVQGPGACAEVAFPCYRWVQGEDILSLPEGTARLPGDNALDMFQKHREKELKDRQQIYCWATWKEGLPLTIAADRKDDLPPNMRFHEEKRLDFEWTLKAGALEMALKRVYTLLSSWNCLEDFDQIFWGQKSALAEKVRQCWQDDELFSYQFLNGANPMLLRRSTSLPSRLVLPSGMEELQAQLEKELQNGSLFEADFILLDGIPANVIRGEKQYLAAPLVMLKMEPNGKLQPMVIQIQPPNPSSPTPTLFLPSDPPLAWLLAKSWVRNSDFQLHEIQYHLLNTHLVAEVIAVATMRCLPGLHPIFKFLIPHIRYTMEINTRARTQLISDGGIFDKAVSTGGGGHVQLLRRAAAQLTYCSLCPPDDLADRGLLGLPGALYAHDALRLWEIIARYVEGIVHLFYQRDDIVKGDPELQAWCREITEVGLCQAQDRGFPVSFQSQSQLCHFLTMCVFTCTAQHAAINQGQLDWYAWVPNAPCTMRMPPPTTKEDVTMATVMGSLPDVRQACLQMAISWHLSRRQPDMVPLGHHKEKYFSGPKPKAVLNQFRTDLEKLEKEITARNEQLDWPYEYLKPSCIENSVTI

Row | SMILES | activity change, negative = inhibition | Potency
1 | O=C(C[C@@H]1C/C=C\CCCC(=O)OC[C@@H]2CCCN2C1=O)N[C@H](CO)Cc1ccccc1 | inactive: -20.8% | –
2 | CN(C)[C@@H]1CN(Cc2ccccn2)CC[C@]1(O)c1ccccc1 | inactive: 55.6% | –
3 | COc1cc(/C=C/c2ccc3cccc([N+](=O)[O-])c3n2)ccc1OCC#N | – | inconclusive: 7.94 µM [inhibitor, full curve]
4 | Cc1ccc(/C=C/C(=O)OC(C)C(=O)Nc2ccc(Cl)cn2)o1 (stereo not given) | – | inconclusive: 44.7 µM [inhibitor, partial curve]
5 | COc1ccc(Cc2nnc(SC(C)c3nc4ccccc4c(=O)[nH]3)o2)cc1 (stereo not given) | inactive: -12.5% | –
6 | Cc1ccc(-n2nc(C)c(C(=O)O)n2)c(C)c1 | inactive: 1.25% | –
7 | Cc1cc(-c2n[nH]c(=S)n2/N=C/C=C/c2ccco2)n[nH]1 | – | inconclusive: 31.6 µM [inhibitor, single point]
8 | CCCCCN1CCN(c2nc3c(c(=O)[nH]c(=O)n3C)n2CCCc2ccccc2)CC1 | – | inconclusive: 126 µM [inhibitor, single point]
9 | CO/N=C/c1c(C(=O)OC)nn(-c2ccccc2)c1Cl | – | inconclusive: 0.251 µM [inhibitor, full curve, poor fit]
10 | CN1CCc2c(sc(NC(=O)c3cc(Cl)sc3Cl)c2C(N)=O)C1 | – | inconclusive: 44.7 µM [inhibitor, partial curve, poor fit]
11 | Cc1cccc(C)c1NC(=O)CN1C(=O)NC(c2ccccc2Cl)C2=C1COC2=O (stereo not given) | inactive: 5.11% | –
12 | COc1ccc2c(CN3CCN(c4ccc(F)cc4)CC3)cc(=O)oc2c1 | – | inconclusive: 56.2 µM [inhibitor, partial curve, poor fit]
13 | CC(C)=CCC/C(C)=N/n1cnnc1 | – | inconclusive: 35.5 µM [inhibitor, single point]
14 | C#CCN(CC(=O)C(C)(C)C)C(C)(C)C | – | inconclusive: 6.31 µM [inhibitor, partial curve, poor fit]
15 | CCOC(=O)C(=CNNc1ccccc1)C(=O)OCC | – | inconclusive: 100 µM [inhibitor, partial curve, poor fit]
16 | CCCc1c(C)c2cccc(C)c2[nH]c1=O | inactive: 172% | –
17 | O=C(Cc1ccc(Cl)cc1)Nc1ccc(S(=O)(=O)Nc2ncccn2)cc1 | – | inconclusive: 50.1 µM [inhibitor, partial curve, poor fit]
18 | CCOC(=O)NNc1ccccc1 | – | inconclusive: 22.4 µM [inhibitor, single point]
19 | CCC1CSC(Nc2cccc(C)c2)=N1 (stereo not given) | inactive: 15.9% | –
20 | CCCC(c1nnnn1Cc1ccco1)N1CCN(c2cc(Cl)ccc2C)CC1 (stereo not given) | – | inconclusive: 112 µM [inhibitor, single point]

Shown as labelled records: 2 of the compounds above.
CO/N=C/c1c(C(=O)OC)nn(-c2ccccc2)c1Cl
  Potency: inconclusive: 0.251 µM [inhibitor, full curve, poor fit]
CN1CCc2c(sc(NC(=O)c3cc(Cl)sc3Cl)c2C(N)=O)C1
  Potency: inconclusive: 44.7 µM [inhibitor, partial curve, poor fit]

— PubChem BioAssay AID1671190 (National Center for Advancing Translational Sciences (NCATS), 2021)
